Test results reported in the supplement of paper PMC6078165.

System: Hs578T
Assay: relative JC-1 red fluorescence (viability) vs pre-drug, coculture with fibroblast (fraction); higher = more viable cancer cells
Procedure: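 JC-1 labelled TNBC cells cocultured 1:1 (1,500 cells each) with CellTrace Violet stained primary or stromal fibroblasts in 384-well plates in FluoroBrite medium, treated with one of 42 anticancer drugs at 0.1, 1, 10 or 100 uM. JC-1 red fluorescence (mitochondrial integrity in cancer cells only) was read by plate reader every 8 h for 72 h. Values are normalised to each well's pre-drug value. The stock of one drug was tenfold lower, so its dose labels may be too high.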

O=c1[nH]cc(F)c(=O)[nH]1 [Fluorouracil]
relative JC-1 red fluorescence
Settings	8 h	16 h	24 h	32 h	40 h	48 h	56 h	64 h	72 h
0.1 µM	0.889	0.772	0.7178	0.68	0.629	0.594	0.57	0.533	0.528
1 µM	0.903	0.761	0.724	0.694	0.646	0.606	0.59	0.552	0.5377

relative JC-1 red fluorescence
Settings	8 h	16 h	24 h	32 h	40 h	48 h	56 h	64 h	72 h
0.1 µM, coculture fibroblast: C12385	0.8496	0.73318	0.655	0.562	0.503	0.473	0.443	0.443	0.442
0.1 µM, coculture fibroblast: H6013	0.887	0.782	0.739	0.721	0.677	0.667	0.642	0.641	0.615
0.1 µM, coculture fibroblast: H6019	0.798	0.666	0.677	0.595	0.564	0.547	0.526	0.513	0.49
0.1 µM, coculture fibroblast: H6076	0.92399	0.8105	0.763	0.736	0.692	0.686	0.66	0.653	0.652
0.1 µM, coculture fibroblast: H6231	0.904	0.829	0.729	0.6937	0.633	0.604	0.558	0.526	0.511
0.1 µM, coculture fibroblast: HADF	0.9107	0.8346	0.732	0.663	0.606	0.567	0.535	0.521	0.496
0.1 µM, coculture fibroblast: HCFa	0.901	0.786	0.746	0.715	0.66	0.644	0.6216	0.606	0.579
0.1 µM, coculture fibroblast: HCPF	0.899	0.807	0.765	0.7476	0.6954	0.67539	0.6541	0.6202	0.5966
0.1 µM, coculture fibroblast: HHSteC	0.9147	0.783	0.74	0.703	0.652	0.622	0.597	0.573	0.535
0.1 µM, coculture fibroblast: HMF	0.8792	0.763	0.729	0.709	0.655	0.638	0.601	0.584	0.571
0.1 µM, coculture fibroblast: HPFa	0.92743	0.8586	0.7395	0.6759	0.625	0.586	0.54	0.516	0.466
0.1 µM, coculture fibroblast: HUF	0.89	0.796	0.715	0.595	0.529	0.484	0.458	0.443	0.432
0.1 µM, coculture fibroblast: Hs27A	0.874	0.826	0.777	0.732	0.689	0.682	0.659	0.654	0.615
0.1 µM, coculture fibroblast: Hs343T	0.9048	0.777	0.7075	0.691	0.629	0.606	0.573	0.56	0.562
0.1 µM, coculture fibroblast: WS1	0.823	0.676	0.592	0.5	0.427	0.398	0.364	0.357	0.351
1 µM, coculture fibroblast: C12385	0.814	0.6681	0.649	0.553	0.5	0.477	0.453	0.453	0.458
1 µM, coculture fibroblast: H6013	0.906	0.799	0.74	0.689	0.633	0.618	0.592	0.582	0.553
1 µM, coculture fibroblast: H6019	0.774	0.666	0.634	0.544	0.502	0.472	0.445	0.429	0.406
1 µM, coculture fibroblast: H6076	0.9033	0.809	0.784	0.772	0.736	0.729	0.717	0.706	0.706
1 µM, coculture fibroblast: H6231	0.907	0.837	0.7297	0.6744	0.5994	0.5655	0.5233	0.491	0.47
1 µM, coculture fibroblast: HADF	0.886	0.793	0.785	0.749	0.727	0.703	0.675	0.67	0.642
1 µM, coculture fibroblast: HCFa	0.839	0.789	0.748	0.697	0.647	0.633	0.597	0.584	0.543
1 µM, coculture fibroblast: HCPF	0.944	0.846	0.769	0.736	0.682	0.655	0.636	0.595	0.569
1 µM, coculture fibroblast: HHSteC	0.869	0.803	0.742	0.695	0.639	0.604	0.573	0.544	0.505
1 µM, coculture fibroblast: HMF	0.893	0.763	0.724	0.7	0.638	0.6062	0.573	0.549	0.542
1 µM, coculture fibroblast: HPFa	0.924	0.816	0.728	0.662	0.609	0.566	0.522	0.492	0.444
1 µM, coculture fibroblast: HUF	0.8646	0.745	0.667	0.56	0.501	0.46	0.422	0.4	0.397
1 µM, coculture fibroblast: Hs27A	0.8656	0.776	0.715	0.662	0.609	0.594	0.556	0.539	0.496
1 µM, coculture fibroblast: Hs343T	0.915	0.7846	0.726	0.704	0.634	0.598	0.57	0.5447	0.5384
1 µM, coculture fibroblast: WS1	0.796	0.6723	0.609	0.50579	0.447	0.423	0.394	0.3927	0.3966

The reference is the same well before dosing, and untreated signal decays as well.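 Labels refer to human fibroblasts, largely primary: uterine (C12385, HUF), lung (H6013), bone (Hs27A), adrenal (HADF), skin (WS1), plus mammary HMF and breast cancer-associated Hs343T. Cancer lines are basal-like or mesenchymal-like triple-negative breast cancer. The paper counts as hits responses shifting over 3x the replicate standard deviation. The tissue of the other fibroblasts is not given here.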
